Literature values, collected in patent US9694002B2, “Substituted benzamides and methods of use thereof” (GENENTECH, INC., priority 2013, dated 2017).

Details: lidocaine administered topically; Center for Drug Evaluation and Research NDA 20-612; cited from earlier work

For `CCN(CC)CC(=O)Nc1c(C)cccc1C` [lidocaine], the plasma concentrations is given as “about 1 μM”.
